The test has as its system Salmonella enterica serovar Typhimurium SL1344. In words: bacterial growth OD600 after 18 h with compound and polymyxin B; higher = more bacterial growth (less inhibition). As to conditions: 50 µM, Mueller-Hinton broth.

Each structure is given as a SMILES string. The list shows a part of the results. Values are raw readings; no control value is given beside them.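 Primary screen: polymyxin B was added at a level permeabilizing Salmonella outer membranes while sparing inner membranes. DMSO wells, both with and without polymyxin B, established maximum growth. Plate-to-plate variation meant each plate was ranked on its own, and the lowest-OD600 compounds were selected as hits.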

As for `CC(C)NC1CCN(c2ccc(C(=O)N3CCCC(O)C3)cc2)CC1` (stereo not given), the “bacterial growth OD600” value (polymyxin B 0.75 µg/mL) amounted to 1.03. `C=CCC(=O)N1CCC2(CCCN(Cc3ccccc3F)C2=O)C1` (stereo not given): the “bacterial growth OD600” value (polymyxin B 1 µg/mL) amounted to 0.963. Take `CC(C)N(C)Cc1nnnn1CC(=O)N1CCCC(C(=O)c2ccccc2)C1` (stereo not given): the “bacterial growth OD600” value (polymyxin B 0.75 µg/mL) worked out at 0.793.

Consider `COC(=O)c1ccc(CN2CCCC(N3CCN(c4ccccc4C)CC3)C2)cc1` (stereo not given), for which the “bacterial growth OD600” value (polymyxin B 1 µg/mL) is 0.936. The same measure, in the same setting: as for `CC(=O)c1ccc(C(=O)N2CCCC(CCC(=O)NCc3ccccc3Cl)C2)s1` (stereo not given), the figure is 1.02. With `CN(CCc1ccccc1)C(=O)c1nc2sccn2c1CN1CCCC1c1nccs1` (stereo not given), the “bacterial growth OD600” value (polymyxin B 1 µg/mL) came out at 0.888. On to `CC1(C)CC(NC(=O)c2cc(COc3ccccc3F)[nH]n2)CCO1` (stereo not given), for which the “bacterial growth OD600” value (polymyxin B 0.75 µg/mL) worked out at 0.809. The same measure, in the same setting: for `c1ccc(-c2noc3c2CN(Cc2cccn2-c2ccccn2)CC3)cc1` the value was 0.709.

As for `CN1CCCC(CN(CCc2ccccc2)C(=O)c2cccc(Cl)c2)C1` (stereo not given), the “bacterial growth OD600” value (polymyxin B 1 µg/mL) worked out at 0.775. `COc1ccc(F)c(CN2CCCC(c3nc(-c4ccncc4)ncc3-c3ccccc3C)C2)c1` (stereo not given): the “bacterial growth OD600” value (polymyxin B 0.75 µg/mL) worked out at 0.401.

For the compound `Cc1ccc(CCNC2CCCN(c3nc(C)c4ccc(S(C)(=O)=O)cc4n3)CC2)cc1` (stereo not given), the “bacterial growth OD600” value (polymyxin B 0.75 µg/mL) was 0.856. Turning to `COCCC(=O)N1CCC(Oc2ccc(C(=O)N[C@H](C(=O)OC)C(C)C)cc2)CC1`, the “bacterial growth OD600” value (polymyxin B 1 µg/mL) turned out to be 0.894. With `Cn1cc(CN2CCCC(CNC(=O)c3cccs3)C2)c(-c2ccccc2)n1` (stereo not given), the “bacterial growth OD600” value (polymyxin B 1 µg/mL) was found to be 0.941. On to `Cc1cc(F)ccc1NC(=O)CCC1CCCN(C(=O)Cc2ccc3c(c2)OCO3)C1` (stereo not given), for which the “bacterial growth OD600” value (polymyxin B 1 µg/mL) stood at 0.869. The same measure, in the same setting: as for `CCC(NC(=O)c1cc(COc2ccc3ncccc3c2)on1)c1ccncc1` (stereo not given), the figure is 1.02; as for `CCCn1c(C)c(CC(=O)N[C@@H](C)C(N)=O)c2c1CC(C)(C)CC2=O`, 0.866. `O=C(N1CCOC(Cc2ccccc2)C1)C12CC3CC(CC(C3)C1)C2` (stereo not given): the “bacterial growth OD600” value (polymyxin B 0.75 µg/mL) was determined as 0.025. In the case of `COc1ccccc1C(=O)N[C@@H]1c2ccccc2C2(CCN(C(=O)Cc3ccsc3)CC2)[C@H]1OC`, the “bacterial growth OD600” value (polymyxin B 0.75 µg/mL) is 0.528.

For the compound `O=C(Nc1cccc(N2CCNC2=O)c1)C1CC12CCN(C(=O)/C=C/c1cc(F)ccc1F)CC2` (stereo not given), the “bacterial growth OD600” value (polymyxin B 0.75 µg/mL) came out at 0.832. Consider `O=C(NC1CC(=O)N(CCc2cccc(Cl)c2)C1)C1CCCC1` (stereo not given), for which the “bacterial growth OD600” value (polymyxin B 1 µg/mL) is 0.8.

These data come from the supplement of paper PMC12889115.
